Laboratory results from the supplement of paper PMC7824004.
The list shows a part of the results. The data scatter; read single values as rough.

Tested on: Candida albicans SN425
Experiment: biofilm OD600 B-score; higher = more biofilm (less inhibition)
Settings: 10 µM; assay detail: High-throughput adherence inhibition optical density biofilm assay with C. albicans SN425 in RPMI-1640/MOPS pH 7.0, 384-well plates. …
Protocol: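 High-throughput adherence inhibition optical density biofilm assay with C. albicans SN425 in RPMI-1640/MOPS pH 7.0, 384-well plates. Compound (10 µM) was present only during the 90 min adherence step, then washed out, and the biofilm grew 24 h without compound. Biofilm was read as OD600 after removing the media. Scores are the difference from the mean in standard deviations and the plate B-score.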

SMILES	biofilm OD600 B-score
CCC(Sc1nc(-c2ccccc2)cc(=O)[nH]1)C(=O)O (stereo not given)	-1.45
CCCOc1ccc(Cn2c(CO)nc3ccccc32)cc1	-0.0773
c1cc(CNc2ccc3c(c2)CCC3)ccn1	0.0188
Cc1nn(C(=O)N2CCOCC2)c(C)c1Br	-0.696
O=C(NCc1ccncc1)C1CCN(C(=O)Cc2ccccc2)CC1	-0.525
NS(=O)(=O)c1ccc(NS(=O)(=O)/C=C/c2ccccc2)cc1	2.76
O=[N+]([O-])c1ccc(N2CCOCC2)c(F)c1	0.0107
Nc1ccc(Sc2nc3ccccc3[nH]2)c(Cl)c1	-0.467
Cc1ccc(-c2csc(N)c2C(N)=O)cc1C	-0.587
Cc1cccc(C(=O)Nc2ccccc2CO)c1	-0.714
Cc1ccc(N2CC(C(=O)NCC3CCCO3)CC2=O)cc1 (stereo not given)	4.13
CC(=O)NS(=O)(=O)c1ccc(NC(=O)CCC2CCCC2)cc1	5.78
CCCCOc1ccc(CSCCN)cc1	-1.19
CCCS(=O)(=O)N1CCN(c2ccccn2)CC1	1.93
O=C(Nc1cccc(Cl)c1)N1CCCC1	-4.21
OC(COc1ccc(Br)cc1)CN1CCOCC1 (stereo not given)	0.61
COc1ccc2[nH]cc(CCNC(N)=O)c2c1	-1.15
NC12CC3CC(C1)CC(O)(C3)C2	0.552
O=C(CCN1CCCCC1)c1ccc(Cl)cc1	-0.21
CC(=O)NCCOc1ccc(NC(C)=O)cc1	2.29

SMILES	biofilm OD600 B-score
Cc1ccccc1OCCN1CCCCC1	0.362
CCn1c2ccccc2n2cc(C)nc12	2.12
O=C(NCc1cccnc1)c1ccc2ccccc2n1	0.174
COc1cc(C)c(S(=O)(=O)NCc2cccnc2)cc1C	0.771
CCCNC(=O)N1CCN(C(=O)NCCC)CC1	-0.0207
CCS(=O)(=O)N1CCN(c2cccc(C)c2C)CC1	-0.167
CCSc1sc(CC)cc1C(N)=O	-0.269
Cc1cc(OCC(O)CN2CCOCC2)cc(C)c1Cl (stereo not given)	2.02
O=C(O)c1ccccc1SCC(=O)N1CCCCC1	-2.6
Cc1ccc(C(=O)N2CCC(C(=O)NCc3cccnc3)CC2)cc1	-1.61
CC(NC(=O)c1ccccc1)C(O)c1ccccc1 (stereo not given)	-0.0607
Cc1cccc(OCCCn2ccnc2)c1C	0.0794
CCN(CC)C(=O)c1ccccc1NC(=O)c1ccco1	-1.85
Cc1occc1C(=O)NCCCc1ccccc1	-1.6
C=CCc1cccc(OC)c1OCCn1cnc2ccccc2c1=O	-3.03
O=C(O)CCCNC(=O)c1ccncc1	-0.0153
COc1ccc(Cl)cc1N(CC(=O)O)S(C)(=O)=O	-4.15
COc1cc(OC)c(NC(=O)c2cccnc2)cc1Cl	0.0977
O=C(O)CCCC(=O)N1CCCc2ccccc21	0.143
O=C(c1ccccc1C(=O)N1CCOCC1)N1CCOCC1	-1.18

Exported field by field: 4 of the compounds above
CC(NC(=O)c1ccccc1)C(O)c1ccccc1 (stereo not given)
  biofilm OD600 B-score: -0.0607
Cc1cccc(OCCCn2ccnc2)c1C
  biofilm OD600 B-score: 0.0794
CCN(CC)C(=O)c1ccccc1NC(=O)c1ccco1
  biofilm OD600 B-score: -1.85
Cc1occc1C(=O)NCCCc1ccccc1
  biofilm OD600 B-score: -1.6

Continued:

SMILES	biofilm OD600 B-score
CC1(C)CC(C#N)(N2CCOCC2)CCO1 (stereo not given)	0.476
COc1cc(OC)cc(C(=O)Nc2nc(C)c(C)s2)c1	2.65
CC(=O)Nc1ccc(-c2cn(Cc3ccccc3)cn2)cc1	0.0162
COc1cccc(CN2CCCN(C)CC2)c1	-3.98
Cc1cc(C)n(S(=O)(=O)/C=C/c2ccccc2)n1	3.91
O=C(CCN1CCCC1)NCC1COc2ccccc2O1 (stereo not given)	2.4
CN(C)C(=O)N1CCN(c2nc(-c3ccccc3)cs2)CC1	-0.016
Cc1c(Cl)cccc1NC(=O)CCC(=O)O	0.467
O=C(N1CCCCCC1)C12CC3CC(CC(C3)C1)C2	2.04
O=C1C2CCCCC2C(=O)N1c1nc2ccccc2s1 (stereo not given)	0.48
Cc1cc(=O)[nH]c(SCCOc2ccccc2C)n1	0.916
COc1ccccc1NC(=O)C1CC(Cl)=CCC1C(=O)O (stereo not given)	0.874
CCSc1nnc(NC(=O)c2ccoc2C)s1	-1.55
Cc1cccc(N2CCN(Cc3ccsc3)CC2)c1C	1.32
O=C(CSc1ccccn1)NC1CC1	1.44
O=C(CCc1ccccc1)Nc1ccccn1	-1.13
COCCNS(=O)(=O)c1cc(Cl)ccc1OC	-0.214
COc1ccccc1CC(=O)N1CCN(c2ccccn2)CC1	-0.319
CCCN(CCO)CCCc1ccccc1	-0.247
Cc1cccnc1NC(=O)C(C)Oc1cccc(Cl)c1 (stereo not given)	0.955
